Results as given in PubChem BioAssay AID328 (DTP/NCI, 2004).
The list is a part of this screen's results and no random one: it gathers tests that were run many times, whatever their T/C, doses with no T/C, and many T/C values between a quarter and a half above the control. Other doses and runs of a compound stand elsewhere. T/C is the treated group as % of the vehicle group. Some doses have a count of surviving animals in place of a T/C: the source files T/C as zero there, which appears to mark a toxic dose or a test without result, not a measured value. Some survivor counts are full or nearly so, which does not show that the dose was tolerated: the source hardly ever lists a survival T/C far under the control, and the zero likely stands for such cases as well. Counts of survivors are from the toxicity check (mostly the fifth day) where no day follows; animals may have died later. Schedule codes are those of the source, taken here to give the interval after Q, in days (D) or hours (H), and the number of doses after X. Some entries were tested several times; the values are given in rising order. For survival time, the PubChem record calls one and a half times the control and up active, and a quarter to a half above the control has no call in these data; cut-offs in other NCI protocols can differ. Some T/C values carry the count of animals alive at the toxicity check (mostly the fifth day); without a count, all were alive then.

Tested on: BDF1 mice, P388 leukemia ip, median survival T/C
Test: NCI In Vivo Anticancer Drug Screen. Data for tumor model P388 Leukemia (intraperitoneal) in B6D2F1 (BDF1) mice
Conditions: T/C endpoint: median survival time, higher T/C = longer survival
Outline: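 In tumour-bearing mice, survival after compound treatment is set against the vehicle group and given as a quotient.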

[1] = dose: 400.0 mg/kg/injection, schedule: Q04DX003 (ip), vehicle: saline with Tween-80
[2] = dose: 100.0 mg/kg/injection, schedule: Q01DX009 (ip), vehicle: saline with Tween-80
[3] = dose: 200.0 mg/kg/injection, schedule: Q01DX009 (ip), vehicle: saline with Tween-80
[4] = dose: 25.0 mg/kg/injection, schedule: Q01DX009 (ip), vehicle: saline with Tween-80
[5] = dose: 50.0 mg/kg/injection, schedule: Q01DX009 (ip), vehicle: saline with Tween-80
[6] = dose: 400.0 mg/kg/injection, schedule: Q01DX009 (ip), vehicle: saline with Tween-80
[7] = dose: 200.0 mg/kg/injection, schedule: Q04DX003 (ip), vehicle: saline
[8] = dose: 20.0 mg/kg/injection, schedule: Q01DX009 (ip), vehicle: saline
[9] = dose: 66.0 mg/kg/injection, schedule: Q04DX003 (ip), vehicle: saline with Tween-80
[10] = dose: 150.0 mg/kg/injection, schedule: Q04DX003 (ip), vehicle: saline with Tween-80
[11] = dose: 400.0 mg/kg/injection, schedule: Q01DX009 (ip), vehicle: Klucel (hydroxypropylcellulose) (HPC)

For CCC(=O)O[C@H]1CC[C@H]2[C@@H]3CCC4=CC(=O)C[C@]4(C)[C@H]3CC[C@]12C, the survivor count [1] was 4 of 6.

In the case of O=NN(CCCl)C(=O)NC12CC3CC(CC(C3)C1)C2, the survivor count (dose: 265.0 mg/kg/injection, schedule: Q04DX003 (ip), vehicle: saline) is reported as 6 of 6, the survivor count (dose: 400.0 mg/kg/injection, schedule: Q04DX003 (ip), vehicle: saline) is reported as 5 of 6 and the survivor count (dose: 600.0 mg/kg/injection, schedule: Q04DX003 (ip), vehicle: saline) is reported as 2 of 6.

With CCCCCCCCCCCCCCCCCCCCCCCCCCCC(=O)OCC(O)CO (configuration not stated) the T/C (dose: 0.5 mg/kg/injection, schedule: Q01DX009 (ip), vehicle: saline + alcohol) was 125 % of control.

For N#Cc1ccc(S(N)(=O)=O)cc1, the survivor count [2] was 6 of 6 and the survivor count [3] was 6 of 6.

For Cc1cc(C(=O)c2ccccn2)c2cccc(C(F)(F)F)c2n1, the survivor count [4] was 6 of 6, the survivor count [5] was 6 of 6 and the survivor count [2] was 6 of 6. For the same compound, the survivor count [6] was 5 of 6.

In the case of CC(NC(=O)C(N)CSC(c1ccccc1)(c1ccccc1)c1ccccc1)C(=O)O (configuration not stated), the T/C (dose: 133.0 mg/kg/injection, schedule: Q04DX003 (ip), vehicle: saline with Tween-80) is reported as 140 % of control, the T/C (dose: 133.0 mg/kg/injection, schedule: Q04DX003 (ip), vehicle: saline) is reported as 131 % of control and the survivor count [7] is reported as 2 of 6. The survivor count (dose: 300.0 mg/kg/injection, schedule: Q04DX003 (ip), vehicle: saline with Tween-80) was 3 of 6 and the survivor count (dose: 300.0 mg/kg/injection, schedule: Q04DX003 (ip), vehicle: saline) was 0 of 6.

With OCC1OC(n2cc(Cl)c3cncnc32)C(O)C1O (configuration not stated) the survivor count [7] was 4 of 6.

For CCN(CC)Cc1nccn1-c1ccc([N+](=O)[O-])cc1C(=O)c1ccccc1Cl, the survivor count (dose: 200.0 mg/kg/injection, schedule: Q01DX009 (ip), vehicle: saline) was 0 of 6.

With CCCCCCCCCCC[N+](C)(C)CCCCCC[N+](C)(C)CCCCCCCCCCC the T/C (dose: 6.25 mg/kg/injection, schedule: Q01DX009 (ip), vehicle: saline) was 136 % of control, the survivor count (dose: 12.5 mg/kg/injection, schedule: Q01DX009 (ip), vehicle: saline) was 6 of 6 and the survivor count [5] was 0 of 6. For the same compound, the survivor count [2] was 0 of 6 and the survivor count [3] was 0 of 6.

In the case of C[C@]12C=CC(=O)C=C1CC[C@@H]1[C@@H]2CC[C@]2(C)OC(=O)CC[C@@H]12, the survivor count [1] is reported as 2 of 6.

With CN(C)c1ccc(-c2cc(C(=O)O)c3cc4ccccc4cc3n2)cc1 the survivor count [3] was 5 of 6 and the survivor count [6] was 4 of 6.

For NN=C(c1ccccc1)c1ccccc1, the survivor count (dose: 62.5 mg/kg/injection, schedule: Q04DX003 (ip), vehicle: Klucel (hydroxypropylcellulose) (HPC)) was 6 of 6, the survivor count (dose: 83.75 mg/kg/injection, schedule: Q01DX009 (ip), vehicle: Klucel (hydroxypropylcellulose) (HPC)) was 5 of 6 and the survivor count (dose: 285.0 mg/kg/injection, schedule: Q04DX003 (ip), vehicle: Klucel (hydroxypropylcellulose) (HPC)) was 2 of 6.

With COc1cc2ccc3c4cc5c(cc4c[n+](C)c3c2cc1OC)OCO5 the T/C [8] was 140 % of control, the T/C (dose: 120.0 mg/kg/injection, schedule: Q01DX009 (ip), vehicle: saline) was 127 % of control and the survivor count (dose: 240.0 mg/kg/injection, schedule: Q01DX009 (ip), vehicle: saline) was 3 of 6 and 4 of 6.

In the case of Cc1c2cnccc2c(C)c2c1c1ccccc1n2CCNCCO, the T/C (dose: 0.64 mg/kg/injection, schedule: Q04DX003 (ip), vehicle: saline) is reported as 136 % of control, the T/C (dose: 1.0 mg/kg/injection, schedule: Q04DX003 (ip), vehicle: saline) is reported as 136 % of control and the T/C (dose: 44.0 mg/kg/injection, schedule: Q04DX003 (ip), vehicle: saline with Tween-80) is reported as 127 % of control. The T/C [9] was 136 % of control.

For O=C(O)c1ccccc1C(=O)Nc1ccccc1C(F)(F)F, the T/C [6] was 128 % of control [5 of 6 alive].

For CC(=O)NC(=S)Nc1ccccc1, the survivor count (dose: 100.0 mg/kg/injection, schedule: Q01DX001 (ip), vehicle: Klucel (hydroxypropylcellulose) (HPC)) was 0 of 6, the survivor count (dose: 200.0 mg/kg/injection, schedule: Q01DX001 (ip), vehicle: Klucel (hydroxypropylcellulose) (HPC)) was 0 of 6 and the survivor count (dose: 400.0 mg/kg/injection, schedule: Q01DX001 (ip), vehicle: Klucel (hydroxypropylcellulose) (HPC)) was 0 of 6.

Nc1ncnc2c1ccn2C1OC2COP(=O)(O)OC2C1O (configuration not stated) was tested, and the T/C (dose: 2.5 mg/kg/injection, schedule: Q01DX010 (ip), vehicle: saline) was 145 % of control, the T/C (dose: 5.0 mg/kg/injection, schedule: Q01DX010 (ip), vehicle: saline) was 145 % of control and the survivor count (dose: 10.0 mg/kg/injection, schedule: Q01DX010 (ip), vehicle: saline) was 6 of 6. The survivor count (dose: 20.0 mg/kg/injection, schedule: Q01DX010 (ip), vehicle: saline) was 6 of 6 and the survivor count (dose: 40.0 mg/kg/injection, schedule: Q01DX010 (ip), vehicle: saline) was 2 of 6.

For O=P(OCc1ccccc1)(N(CCCl)CCCl)N1CCN(P(=O)(OCc2ccccc2)N(CCCl)CCCl)CC1 (configuration not stated), the T/C (dose: 132.0 mg/kg/injection, schedule: Q04DX003 (ip), vehicle: saline with Tween-80) was 131 % of control.

COc1cc2ccc(CC3NCCc4cc5c(cc43)OCO5)cc2cc1OC (configuration not stated) was tested, and the survivor count (dose: 200.0 mg/kg/injection, schedule: Q01DX009 (ip), vehicle: other) was 4 of 6 and the survivor count (dose: 400.0 mg/kg/injection, schedule: Q04DX003 (ip), vehicle: other) was 6 of 6.

With C=CCOc1ccccc1OC the survivor count [6] was 0 of 6 and the survivor count [1] was 6 of 6.

For C=C1C(=O)OC2CC(C)C3C4OC4C(O)C3(C)C(O)C12 (configuration not stated), the T/C (dose: 37.5 mg/kg/injection, schedule: Q01DX009 (ip), vehicle: saline) was 134 % of control.

With C[C@@H]1C[C@@H]([C@@H](CC2CC(=O)NC(=O)C2)OC(=O)CC(=O)c2ccccc2)C(=O)[C@@H](C)C1 the T/C (dose: 16.5 mg/kg/injection, schedule: Q01DX009 (ip), vehicle: saline with Tween-80) was 140 % of control, the T/C [4] was 131 % of control and the T/C [9] was 131 and 140 % of control. The survivor count [2] was 5 of 6, the T/C (dose: 100.0 mg/kg/injection, schedule: Q04DX003 (ip), vehicle: saline with Tween-80) was 117, 122, 140, 145 % of control and the T/C [10] was 140 % of control. The survivor count [10] was 4 of 6, the survivor count (dose: 200.0 mg/kg/injection, schedule: Q04DX003 (ip), vehicle: saline with Tween-80) was 6 of 6 and the survivor count [1] was 1 of 6.

In the case of CC(C)OC(=S)SSC(=S)OC(C)C, the survivor count [11] is reported as 0 of 6.

With CC(=O)Oc1cc2cnc3c4cc(OC(C)=O)c(OC(C)=O)cc4ccc3c2cc1OC(C)=O the survivor count (dose: 10.0 mg/kg/injection, schedule: Q01DX009 (ip), vehicle: saline) was 5 of 6, the survivor count [8] was 6 of 6 and the survivor count (dose: 40.0 mg/kg/injection, schedule: Q01DX009 (ip), vehicle: saline) was 5 of 6 and 6 of 6. For the same compound, the survivor count (dose: 80.0 mg/kg/injection, schedule: Q01DX009 (ip), vehicle: saline) was 6 of 6.

O=C1C(NCC(O)CO)=C(N2CC2)C(=O)C(NCC(O)CO)=C1N1CC1 (configuration not stated) was tested, and the T/C (dose: 0.5 mg/kg/injection, schedule: Q01DX009 (ip), vehicle: saline) was 140 % of control, the T/C (dose: 3.0 mg/kg/injection, schedule: Q01DX009 (ip), vehicle: saline) was 129 % of control and the survivor count (dose: 4.0 mg/kg/injection, schedule: Q01DX009 (ip), vehicle: saline) was 4 of 6.

With C[N+](C)(C)c1ccc2ccccc2n1 the T/C (dose: 12.5 mg/kg/injection, schedule: Q01DX001 (ip), vehicle: saline) was 130 % of control.

O=C(Nc1cc(Cl)ccc1Cl)c1ccccc1Cl was tested, and the survivor count [11] was 6 of 6.

In the case of Oc1ccc(C2CCCCC2)c(O)c1, the survivor count (dose: 100.0 mg/kg/injection, schedule: Q04DX003 (ip), vehicle: Klucel (hydroxypropylcellulose) (HPC)) is reported as 6 of 6.

With C[C@H]1C[C@@H]2[C@H]([C@@H](O)C[C@@]3(C)[C@H]2CC[C@]3(O)C(=O)CO)[C@@]2(C)C=CC(=O)C=C12 the T/C [2] was 127 % of control.
